# Results published in paper PMC7819943, “Rice protein-binding microarrays: a tool to detect cis-acting elements near promoter regions in rice”.
# The chains behind the UniProt entries cited, without tags or fusion partners.
# UniProt Q0JBA9, entry or part of it: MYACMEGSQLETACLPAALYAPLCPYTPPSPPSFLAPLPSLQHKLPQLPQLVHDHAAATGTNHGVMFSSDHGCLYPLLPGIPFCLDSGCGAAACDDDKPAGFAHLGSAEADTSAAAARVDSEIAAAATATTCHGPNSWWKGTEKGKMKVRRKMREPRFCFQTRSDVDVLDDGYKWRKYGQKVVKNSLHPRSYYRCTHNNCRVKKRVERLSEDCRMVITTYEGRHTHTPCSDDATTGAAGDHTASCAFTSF
# This is one part of the list.
# Biological target: OsWRKY34 (Oryza sativa, UniProt Q0JBA9 1-250)
# Assay: protein-binding microarray (RPBM); PBS, 2% BSA, 51.3 ng/ul salmon testes DNA, 50 uM zinc acetate, 200 nM TF, 25 C, 1 h; high values mean tight binding
# Conditions: protein: recombinant; tags: N-terminal polyhistidine and DsRed monomer fusion (pET32a); label: CyDye5-dUTP incorporated in the synthesized complementary strand; 3' TTTTT single-stranded linker to array surface; dsDNA, one strand shown
# Summary of the method: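 Ni–NTA purification followed expression in E. coli BL21-CodonPlus of transcription factors fused N-terminally to a polyhistidine tag and DsRed. At 200 nM in PBS with 2% BSA, salmon testes DNA and 50 µM zinc acetate, the protein was incubated for 1 h at 25 °C with a custom Agilent array that had been primer-extended with Cy5-dUTP and blocked with 2% BSA. After washing, the array was read on an Axon 4000B scanner. The binding signal is per-feature fluorescence intensity in arbitrary units.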
row,Sequence,binding signal
1,TAATTTCTTGCTTGGTCTGCAGTTGCTTGGTGAACAGTATCGGAGTCACCTAGTGCAG,9970 fluorescence intensity (a.u.)
2,AACGCGTTGATTTTTTTAGACATGTTTGACTGTTTGTCTTCGGAGTCACCTAGTGCAG,9860 fluorescence intensity (a.u.)
3,ACCGTATTGTTTTCTTTTCATCGTTAGCTTCTCTTAGAAACGGAGTCACCTAGTGCAG,8150 fluorescence intensity (a.u.)
4,TCAAGATTTGGTTTATCCTTCGACTGTGTTCATCCTTCGACGGAGTCACCTAGTGCAG,9940 fluorescence intensity (a.u.)
5,TAGGTGTTCTTGTTGCCGTCCTGATTCTATACACGGAAAACGGAGTCACCTAGTGCAG,8120 fluorescence intensity (a.u.)
6,TACACTTACATTCCCATCAAAATCCTACGTTTTTCCTATTCGGAGTCACCTAGTGCAG,9320 fluorescence intensity (a.u.)
7,TAGAACTGTGTTTAGTGTCCTCTTCATATGTTTCTAGACTCGGAGTCACCTAGTGCAG,8300 fluorescence intensity (a.u.)
8,TCTCTCTGTACTCTCTCTCTCTCTGTGTGTTTTTTTGAGACGGAGTCACCTAGTGCAG,9000 fluorescence intensity (a.u.)
9,ACTATTCACATTTTCACATCTCCTAGAGCCATTCCACCTTCGGAGTCACCTAGTGCAG,10500 fluorescence intensity (a.u.)
10,CACCTCCGTCTCACTCCTCCAGGCACGCTAGCCACGATGCCGGAGTCACCTAGTGCAG,8760 fluorescence intensity (a.u.)
11,AATGTATATCCTTTTTATCCGTTTTCTTTTGAGTGCTACACGGAGTCACCTAGTGCAG,11300 fluorescence intensity (a.u.)
12,AATAAGATAGTGTTGGTAACGGGGCATGGGATCTCGACCGCGGAGTCACCTAGTGCAG,8380 fluorescence intensity (a.u.)
13,CTACTTGGCTACCCCGGCTATCACTTTGCATACAATCATACGGAGTCACCTAGTGCAG,9080 fluorescence intensity (a.u.)
14,AGCCACACCACGTCTCCTGCCGGCCTCTAGACGTATTACACGGAGTCACCTAGTGCAG,8120 fluorescence intensity (a.u.)
15,TCTCGCAACGCCCCTATTTTACTTTCTTTTTCATAATTTCCGGAGTCACCTAGTGCAG,9380 fluorescence intensity (a.u.)
16,GCTGCTCGGTGGTTGGGTTTGGACCGAGCGGGTGAAAGGGCGGAGTCACCTAGTGCAG,8530 fluorescence intensity (a.u.)
17,ATAGCTAAACTGTGCAATTGGTTTTTCTTTTTGTCCACATCGGAGTCACCTAGTGCAG,9700 fluorescence intensity (a.u.)
18,TCTTTCCTTATCTTGACCTGTCGTCAGCAAATGTGTCATTCGGAGTCACCTAGTGCAG,8270 fluorescence intensity (a.u.)
19,TCCATCTCTTTTATCTCAGTCTCGCGTATATCCTAGCACCCGGAGTCACCTAGTGCAG,11800 fluorescence intensity (a.u.)
20,GGGATAATTGCTTTCTGCTGTTTTCTTTTTACTTTTTTTTCGGAGTCACCTAGTGCAG,9810 fluorescence intensity (a.u.)
21,CTGGATTGACTTTTTATTCAACGGTTGGAGCAGCTTGTTTCGGAGTCACCTAGTGCAG,10900 fluorescence intensity (a.u.)
22,TATATACACTTCTCTTAGCACACATTTCAAACGGTTAAATCGGAGTCACCTAGTGCAG,8080 fluorescence intensity (a.u.)
23,TCTCTCCAACTTTGGCCACATACACCACAAACAAAATACACGGAGTCACCTAGTGCAG,8140 fluorescence intensity (a.u.)

# Exported with bars between the fields: entries from further up.
row | Sequence | binding signal
17 | ATAGCTAAACTGTGCAATTGGTTTTTCTTTTTGTCCACATCGGAGTCACCTAGTGCAG | 9700 fluorescence intensity (a.u.)
19 | TCCATCTCTTTTATCTCAGTCTCGCGTATATCCTAGCACCCGGAGTCACCTAGTGCAG | 11800 fluorescence intensity (a.u.)
